# From PubChem BioAssay AID540276 (National Center for Advancing Translational Sciences (NCATS), 2011)
# Hit rate of the full screen: of about 300,000 compounds, about 5,400 (1.8%) were called active. This list was built around the results that the source calls inconclusive (neither active nor inactive); the mix of calls is not that of the screen. Calls follow the shape of the full dose curve; tested in HEK293 cells. Potencies of inconclusive entries are doubtful fits and often do not repeat.
# Test: qHTS for inhibitors of binding or entry into cells for Marburg Virus
# Settings: Marburg virus pseudotyped entry inhibition, cell reporter; activity change, negative = inhibition: at 37.8 µM (top of the series) unless noted
# % is scaled to controls: 0 for no effect and ±100 for the full control effect; potency is read from the fitted curve at half-maximal effect.
Compound,"activity change, negative = inhibition",Potency
COC(=O)c1c(NC(=O)c2cc(=O)c3ccc(C)c(C)c3o2)sc2c1CCCC2,inactive: 18.2% [at 46.1 µM],
COC(=O)N[C@@H](C=Cc1ccco1)[C@]1(C(=O)OC)CCCC1=O,inactive: 3% [at 14.2 µM],
O=C(Nc1ccccc1Oc1ccccc1)c1ccccc1F,,"inconclusive: 6.51 µM [activator, full curve, poor fit]"
NS(=O)(=O)c1ccc(Nc2nc(-c3ccc(O)cc3O)cs2)cc1,,"inconclusive: 0.398 µM [inhibitor, partial curve, poor fit]"
CC(Oc1ccccc1)c1nnc(N)s1 (centres undefined),inactive: 21.2% [at 46.1 µM],
COc1cccc(-n2nnc3c(sc4nc(C)cc(C)c43)c2=O)c1,,"inconclusive: 2.82 µM [activator, full curve, poor fit]"
Cc1snc(SCc2cccc(Cl)c2)c1C#N,,"inconclusive: 7.94 µM [inhibitor, partial curve]"
O=C(Nc1ccc(Cl)cc1)N1CC=CCC1,,"inconclusive: 5.01 µM [activator, partial curve, poor fit]"
COc1ccc(C2C(C#N)=C(N)N(c3sc4c(c3C#N)CCCC4)C3=C2C(=O)CC(C)(C)C3)cc1OC (centres undefined),,"inconclusive: 16.4 µM [inhibitor, single point]"
COc1cc(C(=O)O/N=C2/C=CC(=O)C(C)=C2C)cc(OC)c1OC,inactive: 0.103% [at 46.1 µM],
CCN(CC)c1ccc(C(=O)N/N=C(\C)c2cccc(OC)c2)cc1,,"inconclusive: 6.51 µM [activator, single point]"
Cc1ccc(S(=O)(=O)Nc2ccc3c(c2)nc2n3CCN(Cc3ccccc3)C2)cc1,,"inconclusive: 10.3 µM [inhibitor, partial curve, poor fit]"
Clc1ccc(-n2nnnc2-c2cnc(-c3ccccn3)nc2-c2cccs2)cc1,,"inconclusive: 14.6 µM [inhibitor, partial curve, poor fit]"
CC(=O)Nc1ccc(NC2=CC(=O)c3ccccc3C2=O)cc1,,"inconclusive: 3.98 µM [activator, single point]"
O=C(NC(=S)NCc1ccc(Cl)cc1)c1ccco1,,"inconclusive: 35.5 µM [inhibitor, single point]"
CCc1noc(C)c1C(=O)NCCc1c[nH]c2ccccc12,,"inconclusive: 10 µM [activator, partial curve, poor fit]"
COC(=O)C1=C(C)N(Cc2ccc3c(c2)OCO3)C(=O)C1,inactive: 8.96% [at 14.2 µM],
c1ccc(CCNc2nc(-c3ccccn3)nc3ccccc23)cc1,,"inconclusive: 2.51 µM [inhibitor, full curve, poor fit]"
COc1ccc(NC(=O)C(Sc2nnc(-c3ccncc3)n2-c2ccccc2C)c2ccccc2)cc1Cl (centres undefined),,"inconclusive: 10 µM [inhibitor, partial curve]"

# Part of the list above in order of SMILES length, high to low.
Compound,"activity change, negative = inhibition",Potency
COc1ccc(NC(=O)C(Sc2nnc(-c3ccncc3)n2-c2ccccc2C)c2ccccc2)cc1Cl (centres undefined),,"inconclusive: 10 µM [inhibitor, partial curve]"
COc1cc(C(=O)O/N=C2/C=CC(=O)C(C)=C2C)cc(OC)c1OC,inactive: 0.103% [at 46.1 µM],
CCN(CC)c1ccc(C(=O)N/N=C(\C)c2cccc(OC)c2)cc1,,"inconclusive: 6.51 µM [activator, single point]"
